At least one compound was matched to its structure with a doubt left.
Tested on: STAT3 transcription
Assay: STAT3 specific luciferase double reporter gene experiment in DU145 cells
Assay type: cell-based, human
Method: The luciferase plasmids STAT3-TA-Luc and pGMLR-TK were transiently co-transfected into DU145 cells by Lipofectamine 3000. After staying overnight, different concentrations of compounds to be tested were added and cultured for 24 hours. The supernatant was discarded, and the residue was washed twice with PBS, and then 20 μL of lysis solution was added to shake and lyse for 5 min. The supernatant was transferred to a 96-well Costar whiteplate, and 70 μL of Dual-Glo luciferase substrate solution was added, and the relative fluorescence intensity of firefly luciferase was detected, and then 70 μL of Stop-Glo substrate solution was added, and the relative fluorescence intensity of sea kidney luciferase was detected, the normalized value was obtained, and the inhibition rate and IC50 value were calculated.

## Cc1ccc(S(=O)(=O)Nc2cc(C(=O)NCc3cccnc3)ccc2C)c(C)c1 [Example 17, 3-((2,4-dimethylphenyl)sulfonamido)-4-methyl-N-(pyridinylmethyl)benzamide]
  STAT3 transcription inhibition activity: obvious STAT3 transcription inhibition activity

— patent US12391647B2, “Benzamide compound and preparation method, use, and pharmaceutical composition thereof” (INSTITUTE OF MATERIA MEDICA, CHINESE ACADEMY OF MEDICAL …, priority 2018, dated 2025)
